From patent US20230147962A1 (PHILOCHEM AG, priority 2020, published 2023)

Assay: general procedure: Fmoc solid-phase peptide synthesis; pre-loaded Fmoc-Cys(Trt) Tentagel resin (RAPP Polymere); HBTU/HOBt/DIPEA; HATU/DIPEA for ligand acid
Details: for isolated mass / isolated yield: whole synthesis

AlbuTag-ESV6-Peptide
isolated mass: 6 mg
isolated yield (scale of the general procedure 0.415 mmol): 2%

ESV6-ValCit-MMAE
conjugation yield (conjugation step): 20%

(2R,5S,8S,11R)-8-(4-aminobutyl)-5,11-bis(carboxymethyl)-16-((4-((carboxymethyl)carbamoyl)quinolin-8-yl)amino)-2-(mercaptomethyl)-4,7,10,13,16-pentaoxo-3,6,9,12-tetraazahexadecanoic acid
isolated mass (scale 0.025 mmol): 2.4 mg
isolated yield (scale 0.025 mmol): 12%

SH-Cys-SH-Cys-Asp-Lys-Asp-ESV6
isolated mass (scale 0.04 mmol): 8 mg
isolated yield (scale 0.04 mmol): 2.4%

(2R,5S,8S,11S)-8-(4-aminobutyl)-5,11-bis(carboxymethyl)-16-((4-((2-((S)-2-cyano-4,4-difluoropyrrolidin-1-yl)-2- oxoethyl)carbamoyl)quinolin-8-yl)amino)-2-(mercaptomethyl)-4,7,10,13,16-pentaoxo-3,6,9,12-tetraazahexadecanoic acid
isolated mass (scale 0.04 mmol): 1 mg
isolated yield (scale 0.04 mmol): 0.3%
